Literature values, collected in patent US20070037797A1, “Method of reducing the risk of adverse cardiovascular (CV) events associated with the administration of pharmaceutical agents which favor CV events” (priority 2005, published 2007).
At least one compound was matched to its structure with a doubt left.

Assays:
[1] = in vivo
[2] = in vivo; remark: listed apart in the source
[3] = versus placebo; existing or high risk of vascular disease

## Cc1ccc(-c2cc(C(F)(F)F)nn2-c2ccc(S(N)(=O)=O)cc2)cc1 [celecoxib]
[1]
  endothelial dysfunction: improves
[2]
  insulin resistance: improves

## CC[C@H](C)C(=O)O[C@H]1C[C@H](O)C=C2C=C[C@H](C)[C@H](CC[C@@H](O)C[C@@H](O)CC(=O)O)[C@H]21 [pravastatin]
[3]
  reduction of the risk of CV events: 15%
